Measured values: patent US9072734B2, “Quaternary ammonium salt compounds” (Teijin Pharma Limited, priority 2009, dated 2015)
Some of these results come from one statement about several compounds together. For at least one compound, name, drawing or mass did not settle the structure.

What was measured:
[1] = tested on: acetylcholine-induced bronchoconstriction in guinea pigs; test: Effects on acetylcholine-induced bronchoconstriction in guinea pigs; format: in vivo, guinea pig; conditions: 24 hours after 25 μg/kg of the compounds were administered
Protocol: These in vivo assays are used to evaluate the bronchoprotective effects based on the M3 muscarinic receptor antagonist activity and the β2 adrenergic receptor agonist activity of test compounds. Hartley male guinea pigs (Nippon SLC, Inc.) weighing about 400-500 g were used. The animals were anesthetized by inhalation of Fluothane (Takeda Pharmaceutical Company Limited) in a plastic box. The test compounds were dissolved in physiological saline containing DMSO, and administered through the nasal cavity into the trachea at a dose of 0.04-25 μg/kg and at a volume of 0.4 mL/kg. For control animals, solvent without a test compound was administered. […] The airway ventilation pressure was measured by the Konzett-Roessler method using a general respiratory function analysis system (M.I.P.S). Prior to administration of acetylcholine or histamine, the airway ventilation pressure was measured and baseline values were recorded. Then, physiological saline was administered through the carotid artery catheter at a volume of 0.4 mL/kg, and the airway ventilation pressure was measured. Bronchoconstrictor response was induced by administering acetylcholine (40 μg/kg, 0.4 mL/kg) or histamine (15 μg/kg, 0.4 mL/kg) through the carotid artery catheter one hour after the administration of the test compounds, and the airway ventilation pressure at the maximum contractile response was recorded. […]

[2] = tested on: histamine-induced bronchoconstriction in guinea pigs; test: Effects on histamine-induced bronchoconstriction in guinea pigs; format: in vivo, guinea pig; conditions: 6 hours after 25 μg/kg of compounds were administered

## COc1cc(NC(=O)CCc2ccc(-c3ccccc3)c(NC(=O)O[C@@H]3C[C@@H]4[C@H]5O[C@H]5[C@H](C3)[N+]4(C)C)c2)c(Cl)cc1CNC[C@H](O)c1ccc(O)c2[nH]c(=O)ccc12.O=C([O-])C(F)(F)F [Example 46, (1R,2R,4S,5S,7S)-7-({[5-(2-{[2-chloro-4-({[(2R)-2-hydroxy-2-(8-hydroxy-2-oxo-1,2-dihydroquinolin-5-yl)ethyl]amino}methyl)-5-methoxyphenyl]carbamoyl}ethyl)-2-phenylphenyl]carbamoyl}oxy)-9,9-dimethyl-3-oxa-9-azatricyclo[3.3.1.0^2,4]nonan-9-ium trifluoroacetate]
[1]
  percentage of bronchoconstriction suppression with respect to the acetylcholine stimulation: ≥ 50%
[2]
  percentage of bronchoconstriction suppression with respect to the histamine stimulation: ≥ 30%
